According to patent US6379894 (NOVIMAUNE S A, dated 1999):
Results are given in words; binding and its absence hold for the method and conditions named. Some binding calls cover weakened binding; strength is not graded here.

The chains behind the UniProt entries cited, without tags or fusion partners.
UniProt P22415: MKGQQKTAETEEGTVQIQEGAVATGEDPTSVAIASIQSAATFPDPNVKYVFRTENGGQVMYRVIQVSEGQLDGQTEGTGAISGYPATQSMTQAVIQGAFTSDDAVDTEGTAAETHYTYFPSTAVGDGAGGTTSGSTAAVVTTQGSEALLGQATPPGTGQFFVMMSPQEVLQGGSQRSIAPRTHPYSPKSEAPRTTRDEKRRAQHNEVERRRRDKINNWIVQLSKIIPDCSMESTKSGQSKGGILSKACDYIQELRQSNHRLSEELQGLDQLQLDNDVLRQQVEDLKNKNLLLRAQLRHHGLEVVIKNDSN

Columns and labels:
[1] = biological target: USF1 factor in nuclear extracts of Me67.8 cells (UniProt P22415); test: EMSA and supershift. The U complex from interferon gamma stimulated Me67.8 nuclear extract holds both STAT1 and USF1.
[2] = biological target: USF1 factor in nuclear extracts of Me67.8 cells (UniProt P22415); test: EMSA on NGE DNA probe, nuclear extract plus recombinant STAT1
[3] = biological target: T1, purified and recombinant USF1 protein (UniProt P22415 1-310, limits assumed); test: EMSA with recombinant proteins on radiolabelled NGE DNA probe (GAS element and E-box)
T1 construct: also called USF1 recombinant factor; USF1 recombinant proteins

| binding [1] | binding [2] | binding [3] | Molecule |
| --- | --- | --- | --- |
| binds | – | – | STAT1 protein in nuclear extract of Me67.8 cells stimulated by interferon gamma (from UniProt P42224 2-750) |
| – | binds | binds | purified and activated recombinant STAT1 protein (other, UniProt P42224 1-750, looked up, activated form (phosphorylated); the residue numbers are not given, also called STAT1 factor) MSQWYELQQLDSKFLEQVHQLYDDSFPMEIRQYLAQWLEKQDWEHAANDVSFATIRFHDLLSQLDDQYSRFSLENNFLLQHNIRKSKRNLQDNFQEDPIQMSMIIYSCLKEERKILENAQRFNQAQSGNIQSTVMLDKQKELDSKVRNVKDKVMCIEHEIKSLEDLQDEYDFKCKTLQNREHETNGVAKSDQKQEQLLLKKMYLMLDNKRKEVVHKIIELLNVTELTQNALINDELVEWKRRQQSACIGGPPNACLDQLQNWFTIVAESLQQVRQQLKKLEELEQKYTYEHDPITKNKQVLWDRTFSLFQQLIQSSFVVERQPCMPTHPQRPLVLKTGVQFTVKLRLLVKLQELNYNLKVKVLFDKDVNERNTVKGFRKFNILGTHTKVMNMEESTNGSLAAEFRHLQLKEQKNAGTRTNEGPLIVTEELHSLSFETQLCQPGLVIDLETTSLPVVVISNVSQLPSGWASILWYNMLVAEPRNLSFFLTPPCARWAQLSEVLSWQFSSVTKRGLNVDQLNMLGEKLLGPNASPDGLIPWTRFCKENINDKNFPFWLWIESILELIKKHLLPLWNDGCIMGFISKERERALLKDQQPGTFLLRFSESSREGAITFTWVERSQNGGEPDFHAVEPYTKKELSAVTFPDIIRNYKVMAAENIPENPLKYLYPNIDKDHAFGKYYSRPKEAPEPMELDGPKGTGYIKTELISVSEVHPSRLQTTDNLLPMSPEEFDEVSRIVGSVEFDSMMNTV |
